Experimental findings from PMC4851422 are described below.

By UniProt entry, the sequences of proteins in these tests, tags left out.
UniProt P55822: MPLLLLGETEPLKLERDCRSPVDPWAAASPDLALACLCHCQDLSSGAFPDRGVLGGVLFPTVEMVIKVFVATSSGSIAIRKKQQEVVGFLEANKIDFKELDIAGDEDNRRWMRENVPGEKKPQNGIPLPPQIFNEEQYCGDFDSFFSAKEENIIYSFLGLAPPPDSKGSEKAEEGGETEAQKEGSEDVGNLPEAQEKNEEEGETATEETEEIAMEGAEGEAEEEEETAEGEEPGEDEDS
UniProt P40763: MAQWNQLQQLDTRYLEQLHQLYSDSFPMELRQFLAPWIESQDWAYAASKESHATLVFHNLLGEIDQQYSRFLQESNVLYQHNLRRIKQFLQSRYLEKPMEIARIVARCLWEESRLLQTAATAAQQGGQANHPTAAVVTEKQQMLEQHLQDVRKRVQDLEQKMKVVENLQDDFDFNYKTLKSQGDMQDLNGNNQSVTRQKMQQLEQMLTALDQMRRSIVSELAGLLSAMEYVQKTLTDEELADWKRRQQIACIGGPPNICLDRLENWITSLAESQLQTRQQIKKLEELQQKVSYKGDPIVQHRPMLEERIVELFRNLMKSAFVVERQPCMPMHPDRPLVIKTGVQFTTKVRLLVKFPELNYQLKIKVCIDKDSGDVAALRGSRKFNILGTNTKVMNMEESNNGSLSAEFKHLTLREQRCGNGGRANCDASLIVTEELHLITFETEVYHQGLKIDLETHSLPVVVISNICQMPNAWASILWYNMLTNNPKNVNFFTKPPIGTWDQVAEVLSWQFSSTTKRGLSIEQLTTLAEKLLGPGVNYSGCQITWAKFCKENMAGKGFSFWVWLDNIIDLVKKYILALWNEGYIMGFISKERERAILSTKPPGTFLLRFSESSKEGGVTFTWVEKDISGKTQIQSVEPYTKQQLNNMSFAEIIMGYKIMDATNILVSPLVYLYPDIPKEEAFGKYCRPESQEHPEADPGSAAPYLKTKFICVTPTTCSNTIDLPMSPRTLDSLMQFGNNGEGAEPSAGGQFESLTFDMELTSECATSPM

Test [1] addresses SH3 domain binding glutamate-rich protein (SH3BGR), endogenous in HUVEC (human (endogenous in HUVEC)) (UniProt P55822). Kind of test: co-IP; HUVEC lysates (150 mM NaCl, 1 mM EDTA, 5% glycerol, 1% NP-40, 25 mM Tris-HCl pH 7.4); IP with antibody against SH3BGR or STAT3 overnight at 4 °C, protein A beads, Western blot; cells untreated, transduced with lentivirus-SH3BGR or transfected with pCMV3-Flag-STAT3.

In test [2] the target is GST-STAT3 fusion protein (full-length STAT3) (UniProt P40763). Kind of test: pull-down; equal amounts of GST or GST-STAT3 incubated with purified His-tagged SH3BGR for 2 h at 4 °C in 50 mM Tris-HCl pH 7.5, 100 mM NaCl, 0.25% Triton-X100, 35 mM 2-Me; bound SH3BGR detected with anti-His antibody; both purified.
Test [3] addresses SH3BGR with a Flag tag at the C-terminus (pHAGE-SH3BGR, lentivirus-SH3BGR) (human) (UniProt P55822). Kind of test: co-IP; HUVEC lysates (150 mM NaCl, 1 mM EDTA, 5% glycerol, 1% NP-40, 25 mM Tris-HCl pH 7.4); IP with antibody against SH3BGR or STAT3 overnight at 4 °C, protein A beads, Western blot; cells untreated, transduced with lentivirus-SH3BGR or transfected with pCMV3-Flag-STAT3. (Immunoblotting shows a protein as a band on a membrane.)

Results are given in words; binding and its absence hold for the method and conditions named. For some of these results: Binding seen in cells or lysates may run through a third protein. Some binding calls cover weakened binding; strength is not graded here.

On to “Flag-STAT3 (pCMV3-Flag-STAT3 construct) (from UniProt P40763 1-770)”, for which the binding result in test [1] was “binds”.
As for “6 x His-SH3BGR protein (from UniProt P55822 1-239)”, the binding entry in test [2] is recorded as “binds”.
Take “STAT3, endogenous in HUVEC (from UniProt P40763 1-770)”: the binding result in test [1] and in test [3] was “binds” each time.
